Data as given in PubChem BioAssay AID2685 (National Center for Advancing Translational Sciences (NCATS), 2010).
This is one part of the list. Shown are side measurements of this screen, not its main read-out; they come without a call. The list favours compounds with an active or inconclusive main result. The note in brackets gives the kind of curve behind each potency; many fits are weak.

Assay: qHTS Assay for Lipid Storage Modulators in Drosophila S3 Cells;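 for cell number change: cells counted by Cell Tracker Red CMTPX staining in the red channel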
Conditions: BODIPY lipid droplet fluorescence, 18-24 h; for cell number change: measured here: cell count max response, cells fed with added oleic acid
How it was run: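 Drosophila S3 cells got compounds at several concentrations plus oleic acid (400 uM solution). Laser-scanning cytometry with 488 nm excitation read lipid droplets at 500-530 nm and cells at 575-640 nm. Percent activity was relative to 20 uM Triacsin C.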

[1] = measured here: lipid fluorescence (Fed channel) AC50, cells fed with added oleic acid
[2] = measured here: cell number channel AC50, cells fed with added oleic acid

| SMILES | cell number change [%] | AC50 [1] | AC50 [2] |
| --- | --- | --- | --- |
| Cc1ccc2c(c1)c1ncnc(N3CCN(c4ccccc4)CC3)c1n2C | -17.7 | 0.0731 µM [rising, full curve] |  |
| COCCN(CC(=O)Nc1ccccc1C(F)(F)F)C(=O)/C=C/c1cc(Cl)c2c(c1)OCO2 | -1.34 |  |  |
| O=C(C[n+]1cc(-c2ccc(Cl)c(Cl)c2)n2c1CCC2)c1cccs1 | 10.2 |  |  |
| Cc1ccc(C(=O)NCC(=O)OCC(=O)Nc2ccccc2C#N)s1 | -13.8 | 0.366 µM [falling, full curve, poor fit] |  |
| CCOC(=O)CCCCC(=O)c1[nH]c(=O)[nH]c1CN1CCOCC1 | 3.64 |  |  |
| COc1ccc(-c2cc(=O)oc3c(C)c(OC(C)C(=O)NCc4ccccn4)ccc23)cc1 (stereo not given) | 37.1 | 29.1 µM [falling, single point] | 29.1 µM [rising, single point] |
| N/C(=N\OC(=O)c1cccc(Cl)c1)c1ccccn1 | 2.36 |  |  |
| COc1ccc(CC(=O)n2[nH]c(=O)ccc2=O)cc1OC | -60.9 |  | 23.1 µM [falling, partial curve] |
| Cc1cc2ccccc2n2c(SCC(=O)Nc3ccc(S(=O)(=O)N4CCCCC4)cc3)nnc12 | -16.4 |  |  |
| CCC(=NC)C1=C(O)CC(c2ccccc2)CC1=O (stereo not given) | 0.338 |  |  |
| O=S(=O)(c1ccccc1)N1CCC(N2CCN(c3ccccc3)CC2)CC1 | 9.68 |  |  |
| CC(=O)c1ccc(N2CCN(S(=O)(=O)c3cc4c(cc3C)NC(=O)CO4)CC2)cc1 |  | 29.1 µM [falling, single point] |  |
| O=C(/C=C(\O)c1ccccc1)C(=O)NNC(=O)c1ccccc1[N+](=O)[O-] | -44.7 |  | 10.3 µM [falling, partial curve] |
| O=C(CSc1nc2c(cnn2-c2cccc(Cl)c2)c(=O)[nH]1)NCCC1=CCCCC1 | -32.6 | 0.82 µM [falling, full curve, poor fit] | 0.651 µM [falling, full curve, poor fit] |
| CC(C)NC(=O)C1COc2ccccc2O1 (stereo not given) | 15.2 | 32.6 µM [rising, single point] |  |
| CCC(CC)C(=O)N1CCN(Cc2ccc3c(c2)OCO3)CC1 | 39.2 | 16.4 µM [rising, partial curve] | 7.31 µM [rising, partial curve] |
| COc1ccccc1CNC(=O)c1ccc2nc3[nH]c4ccccc4c3nc2c1 | -50.7 | 18.4 µM [falling, single point] | 29.1 µM [falling, single point] |
| COc1ccccc1CNC(=O)c1cc2ccccc2o1 | 18.5 | 3.26 µM [rising, full curve] |  |
| O=C(CN1CCN(Cc2cccc(F)c2)CC1)Nc1ccccc1F |  | 6.51 µM [rising, partial curve, poor fit] |  |
| Cc1ccccc1-c1nnn(CC(=O)N2CCN(S(=O)(=O)c3ccc(Cl)cc3)CC2)n1 | 83.6 | 1.84 µM [rising, partial curve] | 6.51 µM [rising, partial curve] |
| C/C(=N\Nc1ccccn1)c1ccc(C#N)cc1 |  |  | 4.11 µM [rising, partial curve, poor fit] |

| SMILES | cell number change [%] | AC50 [1] | AC50 [2] |
| --- | --- | --- | --- |
| CCOC(=O)/C=C/c1ccc2oc3ccccc3c(=O)c2c1 | 15.2 |  |  |
| Cc1ccc(S(=O)(=O)N2CCC(C(=O)N3CCC3)CC2)cc1 | 11.9 | 29.1 µM [falling, single point] |  |
| Cc1ccn(C(=O)c2cc3cc(Cl)ccc3oc2=O)n1 | 29.8 | 0.00517 µM [falling, full curve, poor fit] |  |
| CC(C)(C)c1ccccc1NC(=O)Cn1cnc2cc([N+](=O)[O-])ccc2c1=O | -9.78 | 0.146 µM [falling, full curve, poor fit] |  |
| O=C(CCc1ccccc1)c1c(O)cc(O)cc1O | -52.1 |  | 29.1 µM [falling, single point] |
| COc1cccc(C(=O)NC(C)c2cccc3ccccc23)c1OC (stereo not given) | 27.8 | 29.1 µM [rising, single point] |  |
| CNc1ccc(Oc2nc([N+](=O)[O-])nn2C)cc1 | 9.04 |  | 6.51 µM [rising, single point] |
| Cc1ccccc1Nc1nc(N)nc(COC(=O)c2ccccc2)n1 | 3.98 | 20.6 µM [rising, single point] |  |
| O=C(c1cc(COc2ccc(F)cc2Cl)on1)N1CCC(c2ccncc2)CC1 | -44.2 | 29.1 µM [falling, single point] | 18.4 µM [falling, single point] |
| Cc1ccc(CNC(=O)c2ccc(N3CCC4(CC3)CC(c3ccccc3)=NO4)c(NC(=O)c3cccc(C)c3)c2)cc1 | 12.8 | 29.1 µM [rising, single point] |  |
| CC1=CCC(C(=O)O)(C(=O)N/N=C/c2cccs2)C(c2ccc(Cl)cc2)C1 (stereo not given) | -22.5 |  |  |
| COc1cccc(NC(=O)c2nn(C34CC5CC(CC(C5)C3)C4)cc2[N+](=O)[O-])c1 | -16.7 | 3.26 µM [falling, single point] |  |
| COc1cccc(-c2nc3ccc(C(=O)N4CCCC(O)C4)cc3o2)c1 (stereo not given) | 1.14 | 0.82 µM [falling, full curve, poor fit] |  |
| O=C(OCn1ncc(Cl)c(Cl)c1=O)c1ccccc1Cl | -64.3 | 10.3 µM [falling, partial curve] | 14.6 µM [falling, partial curve] |
| CCOc1ccc2nc(C)cc(C(=O)O)c2c1 | -27.9 |  |  |
| COc1ccccc1Nc1nc(NCc2ccco2)c2ccccc2n1 | -1.64 |  | 0.00517 µM [rising, full curve, poor fit] |
| COc1ccc(OC)c(-c2nn(-c3ccccc3)cc2C(=O)N2CCc3ccccc3C2)c1 | 9.27 | 6.51 µM [falling, single point] |  |
| CC(C)(CN1CCCC1)NS(=O)(=O)c1ccc(Cl)cc1 | 19 |  |  |
| Cc1cc(Cl)ccc1C(=O)C1CCCN(C(=O)c2cnn(C(C)C)c2)C1 (stereo not given) | -24.8 |  |  |
| CCOC(=O)c1c(NC(=O)/C=C\C(=O)O)sc(C)c1-c1ccccc1 | 92.7 | 23.1 µM [rising, partial curve] | 13 µM [rising, partial curve] |
| O=C(NCCc1cccc(C(F)(F)F)c1)C1CCC(=O)N(C2CC2)C1 (stereo not given) | 14.7 | 1.84 µM [rising, partial curve, poor fit] |  |

Of the compounds above, these have a nitro group on carbon.

| SMILES | cell number change [%] | AC50 [1] | AC50 [2] |
| --- | --- | --- | --- |
| O=C(/C=C(\O)c1ccccc1)C(=O)NNC(=O)c1ccccc1[N+](=O)[O-] | -44.7 |  | 10.3 µM [falling, partial curve] |
| CC(C)(C)c1ccccc1NC(=O)Cn1cnc2cc([N+](=O)[O-])ccc2c1=O | -9.78 | 0.146 µM [falling, full curve, poor fit] |  |
| CNc1ccc(Oc2nc([N+](=O)[O-])nn2C)cc1 | 9.04 |  | 6.51 µM [rising, single point] |
| COc1cccc(NC(=O)c2nn(C34CC5CC(CC(C5)C3)C4)cc2[N+](=O)[O-])c1 | -16.7 | 3.26 µM [falling, single point] |  |

(list continues)

| SMILES | cell number change [%] | AC50 [1] | AC50 [2] |
| --- | --- | --- | --- |
| CC1CC(C)CN(C2CCN(Cc3cccnc3)CC2)C1 (stereo not given) | 8.6 | 1.64 µM [falling, partial curve] |  |
| COc1ccc(OC)c(S(=O)(=O)N(C)CC(=O)N2CCN(c3ccccc3)CC2)c1 | -21.2 | 1.3 µM [falling, single point] |  |
| N/C(Cc1ccc([N+](=O)[O-])cc1)=N\OC(=O)c1cccc(Br)c1 | -51.7 |  | 1.03 µM [falling, full curve] |
| CCCn1c(SCC(=O)Nc2cccc(S(=O)(=O)NC3=NCCCCC3)c2)nc2ccccc2c1=O | -34.7 |  | 1.64 µM [falling, full curve, poor fit] |
| COc1ccc2[nH]c(C)c(CN3CCC(C)CC3)c(=O)c2c1 | 38.2 |  | 32.6 µM [rising, single point] |
| Cc1ccc(NC(=O)CN2C(=O)c3ccccc3C2=O)cc1 | -3.81 | 29.1 µM [rising, single point] |  |
| Oc1ccccc1C1=NN(c2ccccc2)C(c2ccccc2)C1 (stereo not given) |  | 8.2 µM [falling, single point] |  |
| Cc1noc(C)c1CSCC(=O)N(C)CC(=O)Nc1ccc(Cl)c(Cl)c1 |  |  | 1.64 µM [rising, partial curve] |
| C=CCNC(=O)c1ccc(OC)cc1 | 38.2 |  | 0.82 µM [falling, single point] |
| O=C(O)C1CC(=O)N(CCc2ccccc2)C1 (stereo not given) | -20.8 | 0.116 µM [falling, full curve, poor fit] |  |
| N#CCC(=O)Nc1ccc(C(=O)NCc2ccccn2)cc1 | 16.7 |  |  |
| O=C(OCc1nc2ccccc2s1)c1cccs1 | -24.9 | 0.58 µM [rising, single point] | 0.326 µM [falling, full curve, poor fit] |
| Cc1ccc(C)c(CSC2=NCCN2C(=O)Cc2ccc([N+](=O)[O-])cc2)c1 | 0.219 | 3.26 µM [rising, partial curve] |  |
| COc1ccc(OC)c(C2C(C(=O)c3cccs3)=C(O)C(=O)N2CCN(C)C)c1 (stereo not given) | 15.7 | 0.13 µM [falling, full curve, poor fit] |  |
| CCOC(=O)CSc1nc2cc(C(=O)N3CCC(C(N)=O)CC3)ccc2c(=O)n1-c1ccccc1 |  |  | 0.58 µM [falling, partial curve, poor fit] |
| CNS(=O)(=O)c1ccc(NC(=O)Nc2ccc3c(c2)OCO3)cc1 | -32.7 | 29.1 µM [rising, single point] | 29.1 µM [falling, single point] |
| CCOCCn1ccc2c(OCC(=O)Nc3cc(OC)ccc3OC)cccc2c1=O | 40.1 |  | 4.11 µM [rising, partial curve, poor fit] |
| CN1CCN(C(=O)c2ccc(OCCOc3ccccc3)cc2)CC1 | 13.1 | 29.1 µM [rising, single point] |  |
| COc1cccc(CNC(=O)C2CCN(S(=O)(=O)c3c(C)nn(C)c3C)CC2)c1 | 24.5 | 13 µM [rising, partial curve] |  |
| Cc1ccc2[nH]c(C)c(CC(=O)NCc3ccccc3)c2c1 | -19.2 | 0.58 µM [rising, single point] |  |
